PubChem BioAssay AID1259405 | NCATS – 2018

Assay: 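Silenced genes that increase secreted GFP made by CHO cells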 (primary screen)
Cells: Chinese hamster CHO-K1 ovary cells with stable secreted eGFP expression
Knock-down reagent: single siRNA against mouse genes, 0.8 pmol siRNA per well (2 µl of 400 nM stock)
Duration: 3 days
Read-out: 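Percent of the per-plate non-targeting control median for intracellular GFP per well by laser scanning cytometry and for cell viability by ATP luminescence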
Reading the numbers: GFP, % of control: higher = more GFP per well, higher productivity; viability (ATP), % of control: higher = more viable cells (more ATP)
Active means: 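Called active when intracellular GFP, relative to negative control, is at or above 120%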
Here is an unselected part of about 50,000 deposited reagents. About 4,000 of all reagents (8%) count as active. 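Mouse siRNA library applied to hamster cells; one well for each siRNA.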 Reagents against one gene are numbered here. Reagent sequences are not shown.

Zfp612 (zinc finger protein 612) #1
- GFP, % of control: 122
- viability (ATP), % of control: 119
- call: active

Zfp612 (zinc finger protein 612) #2
- GFP, % of control: 26.9
- viability (ATP), % of control: 24.6
- call: inactive

Ptch2 (patched 2) #1
- GFP, % of control: 93.2
- viability (ATP), % of control: 122
- call: inactive

Ptch2 (patched 2) #2
- GFP, % of control: 76.2
- viability (ATP), % of control: 71.3
- call: inactive

Gjb6 (gap junction protein, beta 6) #1
- GFP, % of control: 98.9
- viability (ATP), % of control: 61.2
- call: inactive

Gjb6 (gap junction protein, beta 6) #2
- GFP, % of control: 85.6
- viability (ATP), % of control: 97
- call: inactive

Gjb6 (gap junction protein, beta 6) #3
- GFP, % of control: 84.7
- viability (ATP), % of control: 98.3
- call: inactive

Gins3 (GINS complex subunit 3) #1
- GFP, % of control: 57.7
- viability (ATP), % of control: 66.4
- call: inactive

Gins3 (GINS complex subunit 3) #2
- GFP, % of control: 56.8
- viability (ATP), % of control: 65.6
- call: inactive

Gins3 (GINS complex subunit 3) #3
- GFP, % of control: 60.2
- viability (ATP), % of control: 89
- call: inactive

Pax7 (paired box 7) #1
- GFP, % of control: 80.1
- viability (ATP), % of control: 79.2
- call: inactive

Pax7 (paired box 7) #2
- GFP, % of control: 76.9
- viability (ATP), % of control: 84.5
- call: inactive

Nes (nestin) #1
- GFP, % of control: 58.6
- viability (ATP), % of control: 54.2
- call: inactive

Nes (nestin) #2
- GFP, % of control: 61.7
- viability (ATP), % of control: 67.6
- call: inactive

The list goes on (4 carried over from the part before).
Pax7 (paired box 7) #1
- GFP, % of control: 80.1
- viability (ATP), % of control: 79.2
- call: inactive

Pax7 (paired box 7) #2
- GFP, % of control: 76.9
- viability (ATP), % of control: 84.5
- call: inactive

Nes (nestin) #1
- GFP, % of control: 58.6
- viability (ATP), % of control: 54.2
- call: inactive

Nes (nestin) #2
- GFP, % of control: 61.7
- viability (ATP), % of control: 67.6
- call: inactive

Golm1 (golgi membrane protein 1) #1
- GFP, % of control: 62.7
- viability (ATP), % of control: 65.1
- call: inactive

Golm1 (golgi membrane protein 1) #2
- GFP, % of control: 50.9
- viability (ATP), % of control: 56.3
- call: inactive

Golm1 (golgi membrane protein 1) #3
- GFP, % of control: 41.9
- viability (ATP), % of control: 40.9
- call: inactive

Gabra3 (gamma-aminobutyric acid type A receptor subunit alpha 3) #1
- GFP, % of control: 48.4
- viability (ATP), % of control: 71.1
- call: inactive

Gabra3 (gamma-aminobutyric acid type A receptor subunit alpha 3) #2
- GFP, % of control: 34.7
- viability (ATP), % of control: 51.9
- call: inactive

Gabra3 (gamma-aminobutyric acid type A receptor subunit alpha 3) #3
- GFP, % of control: 45.5
- viability (ATP), % of control: 64.5
- call: inactive

Camta2 (calmodulin binding transcription activator 2) #1
- GFP, % of control: 188
- viability (ATP), % of control: 90.4
- call: active

Camta2 (calmodulin binding transcription activator 2) #2
- GFP, % of control: 74.5
- viability (ATP), % of control: 44.6
- call: inactive

Camta2 (calmodulin binding transcription activator 2) #3
- GFP, % of control: 48.2
- viability (ATP), % of control: 86.3
- call: inactive

Reg3g (regenerating islet-derived 3 gamma) #1
- GFP, % of control: 66.6
- viability (ATP), % of control: 61.6
- call: inactive

Reg3g (regenerating islet-derived 3 gamma) #2
- GFP, % of control: 71
- viability (ATP), % of control: 62.3
- call: inactive

Reg3g (regenerating islet-derived 3 gamma) #3
- GFP, % of control: 68.4
- viability (ATP), % of control: 56.8
- call: inactive

Ptms (parathymosin) #1
- GFP, % of control: 76.4
- viability (ATP), % of control: 66.9
- call: inactive

Ptms (parathymosin) #2
- GFP, % of control: 142
- viability (ATP), % of control: 154
- call: active

Ptms (parathymosin) #3
- GFP, % of control: 109
- viability (ATP), % of control: 80.2
- call: inactive

Nckipsd (NCK interacting protein with SH3 domain) #1
- GFP, % of control: 90.7
- viability (ATP), % of control: 83.7
- call: inactive

Nckipsd (NCK interacting protein with SH3 domain) #2
- GFP, % of control: 136
- viability (ATP), % of control: 98.1
- call: active

Nckipsd (NCK interacting protein with SH3 domain) #3
- GFP, % of control: 61.6
- viability (ATP), % of control: 52.6
- call: inactive

Phf6 (PHD finger protein 6) #1
- GFP, % of control: 86.5
- viability (ATP), % of control: 105
- call: inactive

Phf6 (PHD finger protein 6) #2
- GFP, % of control: 92.4
- viability (ATP), % of control: 57.8
- call: inactive

Phf6 (PHD finger protein 6) #3
- GFP, % of control: 113
- viability (ATP), % of control: 95
- call: inactive

Rab3a (RAB3A, member RAS oncogene family) #1
- GFP, % of control: 48.2
- viability (ATP), % of control: 63.6
- call: inactive

Rab3a (RAB3A, member RAS oncogene family) #2
- GFP, % of control: 53.9
- viability (ATP), % of control: 74.8
- call: inactive

Or2p2 (olfactory receptor family 2 subfamily P member 2) #1
- GFP, % of control: 81.2
- viability (ATP), % of control: 80.7
- call: inactive

Or2p2 (olfactory receptor family 2 subfamily P member 2) #2
- GFP, % of control: 82.4
- viability (ATP), % of control: 68.5
- call: inactive

Or2p2 (olfactory receptor family 2 subfamily P member 2) #3
- GFP, % of control: 35.5
- viability (ATP), % of control: 65.5
- call: inactive
